Experimental data taken from US20100150924A1 (published 2010).
No constants are given. Whether binding was seen depends on the method and setting. Binding calls can cover weak binding; strength is not graded here. Where a sequence is shown, tags or fusion partners need not be part of it.

Amino acid sequences for entries named in this document (tags omitted). A change or cut given only in a name is not applied to a line headed by its entry.
UniProt Q1WIM3: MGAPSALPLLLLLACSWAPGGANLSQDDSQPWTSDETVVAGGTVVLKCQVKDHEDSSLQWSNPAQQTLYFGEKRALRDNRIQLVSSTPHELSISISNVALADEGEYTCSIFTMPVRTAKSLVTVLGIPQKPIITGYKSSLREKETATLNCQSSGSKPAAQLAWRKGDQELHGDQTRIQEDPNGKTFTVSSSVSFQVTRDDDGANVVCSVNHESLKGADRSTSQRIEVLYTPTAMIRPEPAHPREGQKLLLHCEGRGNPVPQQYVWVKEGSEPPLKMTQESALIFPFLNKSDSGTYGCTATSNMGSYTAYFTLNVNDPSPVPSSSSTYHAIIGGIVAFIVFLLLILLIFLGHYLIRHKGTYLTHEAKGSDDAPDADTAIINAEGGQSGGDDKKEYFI
UniProt Q8BLQ9: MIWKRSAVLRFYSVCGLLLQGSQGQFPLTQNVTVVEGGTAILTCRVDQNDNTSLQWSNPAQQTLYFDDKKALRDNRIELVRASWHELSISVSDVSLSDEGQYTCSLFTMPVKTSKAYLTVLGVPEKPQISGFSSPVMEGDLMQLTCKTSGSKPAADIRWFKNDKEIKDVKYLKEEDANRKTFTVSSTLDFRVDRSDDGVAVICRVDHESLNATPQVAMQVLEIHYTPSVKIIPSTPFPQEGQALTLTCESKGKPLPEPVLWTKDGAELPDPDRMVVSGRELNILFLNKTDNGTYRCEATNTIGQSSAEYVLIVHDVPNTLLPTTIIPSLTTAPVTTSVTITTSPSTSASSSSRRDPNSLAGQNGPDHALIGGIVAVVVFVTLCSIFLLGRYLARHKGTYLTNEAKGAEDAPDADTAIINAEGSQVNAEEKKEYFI

Tests used:
[1] = biological target: Necl1 expressed on transfected COS-7 cells (pC3-Necl1) (rat) (UniProt Q1WIM3); assay: Fc-fusion binding to transfected COS-7 cells, fluorescence microscopy
[2] = biological target: Necl3 expressed on transfected COS-7 cells (pC3.1-Necl3-myc/his) (mouse) (UniProt Q8BLQ9); assay: as above
[3] = biological target: Necl4 expressed on transfected COS-7 cells (pC3.1-Necl4) (mouse/rat (chimeric)); assay: as above
[4] = biological target: Necl4 expressed on transfected COS-7 cells (pC3.1-Necl4) (mouse/rat (chimeric)); assay: Fc-fusion binding to transfected COS-7 cells, used to show expression (insets of FIG. 4A)

Measured: binding

B1: Necl1-Fc (extracellular domain of Necl1 fused to the constant region of human IgG1) (Fc fusion)
chain: NLSQDGYWQEQDLELGTPAPLEEALSSTVWSNPDLLASQDSQPWTSDETVVAGGTVVLKCQVKDHEDSSLQWSNPAQQTLYFGEKRALRDNRIQLVSSTPHELSISISNVALADEGEYTCSIFTMPVRTAKSLVTVLGIPQKPIITGYKSSLREKETATLNCQSSGSKPAAQLAWRKGDQELHGDQTRIQEDPNGKTFTVSSSVSFQVTRDDDGANVVCSVNHESLKGADRSTSQRIEVLYTPTAMIRPEPAHPREGQKLLLHCEGRGNPVPQQYVWVKEGSEPPLKMTQESALIFPFLNKSDSGTYGCTATSNMGSYTAYFTLNVNDPSPVPSSSST
notes: Produced in HEK 293T cells; also called soluble Necl1; Nel1-Fc; not shown: constant region (Fc) of human IgG1
binds: all assays above
